Measured values reported in paper PMC11251085.
Results are given in words; binding and its absence hold for the method and conditions named. In cells and extracts the contact can be indirect. These calls come from enrichment with a bait or labelling near it, and not all partners need be listed.

By UniProt entry, the sequences of proteins in these tests, tags left out. Where a name states a change or a piece, a line headed by the entry shows the natural chain unless it says otherwise. Chains listed by the source or under a name are the forms on record and can include a tag or linker.
UniProt Q99873: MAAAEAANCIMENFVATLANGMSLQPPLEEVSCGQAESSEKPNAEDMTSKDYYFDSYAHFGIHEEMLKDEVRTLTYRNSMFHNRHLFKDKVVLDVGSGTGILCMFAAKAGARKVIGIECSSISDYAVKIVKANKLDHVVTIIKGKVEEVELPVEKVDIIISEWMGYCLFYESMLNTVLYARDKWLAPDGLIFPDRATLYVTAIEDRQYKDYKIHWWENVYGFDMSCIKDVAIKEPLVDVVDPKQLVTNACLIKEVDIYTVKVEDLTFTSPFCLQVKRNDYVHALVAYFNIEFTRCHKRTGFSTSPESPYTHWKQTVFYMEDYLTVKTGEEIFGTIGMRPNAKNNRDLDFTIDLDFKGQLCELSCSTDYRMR
UniProt Q93009: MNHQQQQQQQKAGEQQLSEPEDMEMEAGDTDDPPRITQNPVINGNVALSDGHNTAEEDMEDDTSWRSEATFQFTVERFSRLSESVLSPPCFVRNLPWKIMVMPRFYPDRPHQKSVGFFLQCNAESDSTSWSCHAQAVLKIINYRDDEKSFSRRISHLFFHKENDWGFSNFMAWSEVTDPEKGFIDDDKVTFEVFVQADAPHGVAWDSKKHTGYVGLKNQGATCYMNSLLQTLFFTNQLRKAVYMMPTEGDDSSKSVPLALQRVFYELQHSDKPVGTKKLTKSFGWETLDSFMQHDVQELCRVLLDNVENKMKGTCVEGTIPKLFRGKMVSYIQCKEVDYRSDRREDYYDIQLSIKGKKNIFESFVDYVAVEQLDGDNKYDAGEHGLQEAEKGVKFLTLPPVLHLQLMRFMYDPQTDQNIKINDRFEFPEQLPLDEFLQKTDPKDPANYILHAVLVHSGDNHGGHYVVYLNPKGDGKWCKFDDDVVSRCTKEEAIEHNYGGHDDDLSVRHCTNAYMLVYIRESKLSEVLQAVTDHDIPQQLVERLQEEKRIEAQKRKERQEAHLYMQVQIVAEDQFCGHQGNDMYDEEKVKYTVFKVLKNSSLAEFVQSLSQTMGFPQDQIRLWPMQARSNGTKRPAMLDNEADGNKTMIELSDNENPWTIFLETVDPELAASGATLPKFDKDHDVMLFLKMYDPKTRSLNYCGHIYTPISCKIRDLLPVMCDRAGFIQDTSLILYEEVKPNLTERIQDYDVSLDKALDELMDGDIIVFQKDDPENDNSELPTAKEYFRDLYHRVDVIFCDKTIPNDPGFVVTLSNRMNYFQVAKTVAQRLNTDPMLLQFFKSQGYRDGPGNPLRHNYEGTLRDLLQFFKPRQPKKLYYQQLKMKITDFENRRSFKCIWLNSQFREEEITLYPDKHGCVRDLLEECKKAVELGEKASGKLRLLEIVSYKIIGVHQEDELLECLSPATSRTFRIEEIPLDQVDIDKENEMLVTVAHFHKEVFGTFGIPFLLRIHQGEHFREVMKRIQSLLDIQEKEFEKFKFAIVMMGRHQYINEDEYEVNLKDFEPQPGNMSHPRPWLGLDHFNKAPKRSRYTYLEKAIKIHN
UniProt Q93008: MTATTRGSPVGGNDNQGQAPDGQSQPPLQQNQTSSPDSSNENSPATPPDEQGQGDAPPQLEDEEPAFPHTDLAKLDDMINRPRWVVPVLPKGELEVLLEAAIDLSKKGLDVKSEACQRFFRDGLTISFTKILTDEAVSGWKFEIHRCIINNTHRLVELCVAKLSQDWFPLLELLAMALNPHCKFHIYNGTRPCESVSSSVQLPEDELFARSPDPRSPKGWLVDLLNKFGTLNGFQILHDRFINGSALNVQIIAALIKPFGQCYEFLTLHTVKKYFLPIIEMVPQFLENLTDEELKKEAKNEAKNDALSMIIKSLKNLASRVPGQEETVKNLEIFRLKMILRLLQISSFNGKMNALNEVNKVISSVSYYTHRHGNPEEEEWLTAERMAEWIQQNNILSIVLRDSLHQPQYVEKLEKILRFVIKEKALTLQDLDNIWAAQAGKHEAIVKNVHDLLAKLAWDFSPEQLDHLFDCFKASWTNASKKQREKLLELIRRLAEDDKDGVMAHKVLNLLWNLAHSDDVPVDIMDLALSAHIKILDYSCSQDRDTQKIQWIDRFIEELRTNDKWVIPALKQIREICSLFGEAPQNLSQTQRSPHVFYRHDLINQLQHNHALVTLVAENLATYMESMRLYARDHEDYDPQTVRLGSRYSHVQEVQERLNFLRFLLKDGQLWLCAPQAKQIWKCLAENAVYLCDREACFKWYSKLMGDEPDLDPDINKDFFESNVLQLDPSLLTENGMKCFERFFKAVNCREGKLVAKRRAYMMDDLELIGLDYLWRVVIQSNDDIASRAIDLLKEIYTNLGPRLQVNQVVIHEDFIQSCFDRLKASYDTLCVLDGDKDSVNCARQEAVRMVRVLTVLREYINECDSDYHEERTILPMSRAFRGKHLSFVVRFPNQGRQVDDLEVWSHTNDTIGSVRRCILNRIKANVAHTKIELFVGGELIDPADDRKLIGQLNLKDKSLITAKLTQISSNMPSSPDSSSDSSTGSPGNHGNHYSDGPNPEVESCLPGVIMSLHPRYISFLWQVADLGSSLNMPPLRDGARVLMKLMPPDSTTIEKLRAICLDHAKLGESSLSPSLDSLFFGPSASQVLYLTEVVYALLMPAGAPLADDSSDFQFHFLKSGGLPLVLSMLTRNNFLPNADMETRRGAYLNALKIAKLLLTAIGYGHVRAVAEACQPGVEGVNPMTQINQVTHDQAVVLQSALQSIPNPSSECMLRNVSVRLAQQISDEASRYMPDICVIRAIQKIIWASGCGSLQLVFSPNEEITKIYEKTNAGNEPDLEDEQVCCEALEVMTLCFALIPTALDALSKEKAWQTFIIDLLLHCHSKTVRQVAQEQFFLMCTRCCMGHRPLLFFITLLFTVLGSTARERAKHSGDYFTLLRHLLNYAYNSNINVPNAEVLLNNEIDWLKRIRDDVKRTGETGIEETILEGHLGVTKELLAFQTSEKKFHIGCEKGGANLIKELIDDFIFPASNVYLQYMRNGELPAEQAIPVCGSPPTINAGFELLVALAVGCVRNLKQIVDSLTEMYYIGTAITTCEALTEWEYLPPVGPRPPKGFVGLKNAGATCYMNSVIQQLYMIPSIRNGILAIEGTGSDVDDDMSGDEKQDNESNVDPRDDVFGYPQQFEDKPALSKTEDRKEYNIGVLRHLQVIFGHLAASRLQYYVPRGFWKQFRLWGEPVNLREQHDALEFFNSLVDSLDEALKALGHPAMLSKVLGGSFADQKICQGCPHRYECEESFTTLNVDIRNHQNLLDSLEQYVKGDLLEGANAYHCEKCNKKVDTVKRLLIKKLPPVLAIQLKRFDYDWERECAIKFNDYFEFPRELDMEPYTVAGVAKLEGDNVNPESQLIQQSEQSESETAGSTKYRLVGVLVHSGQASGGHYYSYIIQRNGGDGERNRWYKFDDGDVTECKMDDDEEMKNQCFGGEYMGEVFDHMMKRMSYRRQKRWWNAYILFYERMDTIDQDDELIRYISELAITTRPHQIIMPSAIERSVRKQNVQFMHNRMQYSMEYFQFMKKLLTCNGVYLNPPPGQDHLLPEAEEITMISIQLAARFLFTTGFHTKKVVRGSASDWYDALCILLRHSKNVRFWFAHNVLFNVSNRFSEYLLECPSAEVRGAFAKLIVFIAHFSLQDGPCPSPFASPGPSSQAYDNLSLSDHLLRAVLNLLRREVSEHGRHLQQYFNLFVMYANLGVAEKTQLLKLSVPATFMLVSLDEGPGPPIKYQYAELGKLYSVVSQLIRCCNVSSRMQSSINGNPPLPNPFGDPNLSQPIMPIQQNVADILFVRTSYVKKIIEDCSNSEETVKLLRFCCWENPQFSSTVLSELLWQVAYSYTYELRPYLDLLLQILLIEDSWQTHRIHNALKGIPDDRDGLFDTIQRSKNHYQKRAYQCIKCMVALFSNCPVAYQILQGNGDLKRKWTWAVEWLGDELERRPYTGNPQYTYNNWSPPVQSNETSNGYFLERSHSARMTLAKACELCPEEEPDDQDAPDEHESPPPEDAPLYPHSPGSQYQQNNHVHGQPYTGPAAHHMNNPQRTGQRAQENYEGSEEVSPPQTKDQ
hnRNPA2B1 (P22626-2, form named): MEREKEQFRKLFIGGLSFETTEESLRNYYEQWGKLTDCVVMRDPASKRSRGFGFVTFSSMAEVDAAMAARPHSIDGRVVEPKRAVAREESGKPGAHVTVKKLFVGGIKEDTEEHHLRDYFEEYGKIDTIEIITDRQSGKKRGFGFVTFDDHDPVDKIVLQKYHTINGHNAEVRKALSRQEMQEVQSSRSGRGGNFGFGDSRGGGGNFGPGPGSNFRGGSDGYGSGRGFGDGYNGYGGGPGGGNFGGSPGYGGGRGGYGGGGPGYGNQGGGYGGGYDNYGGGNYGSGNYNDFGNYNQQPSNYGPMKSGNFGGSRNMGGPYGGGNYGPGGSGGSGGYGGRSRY

Molecular target: 3×Flag-PRMT1 (UniProt Q99873)
Assay: affinity purification with mass spectrometry; 3×Flag-PRMT1 complex purified from A549-Flag-PRMT1 cells via anti-Flag immunoaffinity chromatography, then mass spectrometry

Substance | binding
USP7 (from UniProt Q93009 1-1102) (enzyme) | binds
USP9X (from UniProt Q93008 1-2554) (enzyme) | binds
hnRNPA2B1 (from UniProt P22626-2 1-341) | binds
